Measurements reported in PMC5681774.
These are yes or no findings as the source states them, for the method shown. For some assays here: Binding seen in cells or lysates may run through a third protein. Some entries that bind do so weakly or less than the wild type. For some assays here: Sequences can lack the tags named with a protein. Each block holds one molecule with its values, some of them ahead of it.

Amino acid sequences for entries named in this document (tags omitted). A change or cut given only in a name is not applied to a line headed by its entry. Residues count along the entry.
UniProt P42227: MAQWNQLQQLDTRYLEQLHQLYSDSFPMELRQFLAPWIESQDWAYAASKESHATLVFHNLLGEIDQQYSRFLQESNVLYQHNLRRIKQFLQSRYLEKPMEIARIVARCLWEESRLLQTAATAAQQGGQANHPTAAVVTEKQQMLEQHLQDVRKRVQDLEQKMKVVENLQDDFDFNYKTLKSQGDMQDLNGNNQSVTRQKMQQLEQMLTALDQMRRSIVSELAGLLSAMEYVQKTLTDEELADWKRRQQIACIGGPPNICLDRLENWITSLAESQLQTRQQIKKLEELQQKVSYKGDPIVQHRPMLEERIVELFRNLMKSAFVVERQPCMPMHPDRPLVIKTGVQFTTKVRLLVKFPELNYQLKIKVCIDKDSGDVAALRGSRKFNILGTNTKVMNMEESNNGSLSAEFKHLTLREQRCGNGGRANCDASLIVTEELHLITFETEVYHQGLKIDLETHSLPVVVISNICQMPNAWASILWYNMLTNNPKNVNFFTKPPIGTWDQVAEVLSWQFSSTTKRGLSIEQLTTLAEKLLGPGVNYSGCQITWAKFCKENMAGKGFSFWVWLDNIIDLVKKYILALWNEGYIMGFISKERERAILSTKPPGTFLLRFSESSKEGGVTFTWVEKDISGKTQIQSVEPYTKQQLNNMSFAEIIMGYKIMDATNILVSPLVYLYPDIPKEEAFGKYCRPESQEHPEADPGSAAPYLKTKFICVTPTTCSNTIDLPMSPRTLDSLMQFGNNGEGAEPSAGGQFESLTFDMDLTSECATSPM
UniProt Q8C2B3: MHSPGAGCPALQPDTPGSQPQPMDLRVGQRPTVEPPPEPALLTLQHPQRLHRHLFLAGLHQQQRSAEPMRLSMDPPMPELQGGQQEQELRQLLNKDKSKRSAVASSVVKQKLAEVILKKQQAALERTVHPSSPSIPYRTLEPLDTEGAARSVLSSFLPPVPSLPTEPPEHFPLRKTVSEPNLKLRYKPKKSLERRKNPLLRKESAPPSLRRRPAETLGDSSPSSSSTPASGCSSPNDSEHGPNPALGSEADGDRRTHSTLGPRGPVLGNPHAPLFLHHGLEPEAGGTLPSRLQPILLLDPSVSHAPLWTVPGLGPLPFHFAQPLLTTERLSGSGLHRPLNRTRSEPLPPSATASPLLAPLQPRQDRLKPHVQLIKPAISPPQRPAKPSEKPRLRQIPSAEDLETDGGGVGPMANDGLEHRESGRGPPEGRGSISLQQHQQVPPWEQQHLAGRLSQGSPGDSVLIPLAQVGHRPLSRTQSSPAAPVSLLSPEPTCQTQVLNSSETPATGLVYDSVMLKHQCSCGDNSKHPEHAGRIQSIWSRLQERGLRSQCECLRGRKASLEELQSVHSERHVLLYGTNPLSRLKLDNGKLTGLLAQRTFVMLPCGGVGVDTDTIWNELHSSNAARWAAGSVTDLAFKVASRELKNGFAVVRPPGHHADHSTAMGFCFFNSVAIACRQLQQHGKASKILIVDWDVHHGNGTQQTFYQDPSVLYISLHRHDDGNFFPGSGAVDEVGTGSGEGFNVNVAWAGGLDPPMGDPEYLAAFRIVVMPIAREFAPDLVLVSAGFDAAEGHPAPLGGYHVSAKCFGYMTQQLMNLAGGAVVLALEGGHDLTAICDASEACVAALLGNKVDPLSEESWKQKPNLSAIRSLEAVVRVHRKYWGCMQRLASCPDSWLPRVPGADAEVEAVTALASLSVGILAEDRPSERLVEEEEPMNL
GST-Hdac7(aa445–938): residues 445-938 of Q8C2B3
UniProt P40763: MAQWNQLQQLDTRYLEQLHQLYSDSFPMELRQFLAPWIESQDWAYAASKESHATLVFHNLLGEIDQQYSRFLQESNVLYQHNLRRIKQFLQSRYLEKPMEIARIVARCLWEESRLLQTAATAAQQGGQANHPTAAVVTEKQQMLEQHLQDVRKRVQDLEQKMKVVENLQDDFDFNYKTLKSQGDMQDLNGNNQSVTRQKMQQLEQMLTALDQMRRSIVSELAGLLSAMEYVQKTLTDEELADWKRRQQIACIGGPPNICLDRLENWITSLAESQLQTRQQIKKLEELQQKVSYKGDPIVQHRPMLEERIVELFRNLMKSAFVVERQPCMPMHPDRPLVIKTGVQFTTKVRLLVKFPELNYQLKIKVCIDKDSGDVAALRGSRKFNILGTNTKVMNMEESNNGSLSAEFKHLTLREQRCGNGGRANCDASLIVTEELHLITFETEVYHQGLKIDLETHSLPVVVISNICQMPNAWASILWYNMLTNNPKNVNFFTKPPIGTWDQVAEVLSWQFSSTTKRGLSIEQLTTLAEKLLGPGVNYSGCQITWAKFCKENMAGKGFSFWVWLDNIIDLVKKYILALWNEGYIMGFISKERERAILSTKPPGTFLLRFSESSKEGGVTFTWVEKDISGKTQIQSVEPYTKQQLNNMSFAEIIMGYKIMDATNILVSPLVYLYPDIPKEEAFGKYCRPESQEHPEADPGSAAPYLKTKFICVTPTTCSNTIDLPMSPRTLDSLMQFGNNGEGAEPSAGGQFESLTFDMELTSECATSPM

Assays:
[1] = target: Flag-tagged Stat3 (mouse) (UniProt P42227); assay: co-IP; exogenous mouse proteins expressed in 293T cells; reciprocal immunoprecipitation and Western blot
[2] = target: Stat3, endogenous mouse protein (mouse (endogenous in lung tumors of K-Ras mice)) (UniProt P42227); assay: co-IP; endogenous proteins in lung tumors from control K-Ras mice; immunoprecipitation and Western blot
[3] = target: GST-Hdac7(aa445–938) (mouse) (UniProt Q8C2B3); assay: pull-down; GST pull-down of affinity-purified proteins incubated in Nonidet P-40 lysis buffer for 1.5 h, washed three times with PBS, Western blot with anti-Hdac7 and anti-Stat3; both purified
[4] = target: exogenous mouse Hdac7 expressed in 293T cells (mouse) (UniProt Q8C2B3); assay: co-IP; exogenous mouse proteins expressed in 293T cells; reciprocal immunoprecipitation and Western blot
[5] = target: STAT3 (signal transducer and activator of transcription 3), endogenous human protein (human (endogenous in H1299)) (UniProt P40763); assay: co-IP; endogenous proteins in H1299 human lung cancer cells; immunoprecipitation and Western blot

- binding [1]: binds
Molecule: exogenous mouse Hdac7 expressed in 293T cells (from UniProt Q8C2B3-1 1-938)

- binding [2]: binds
Molecule: Hdac7, endogenous mouse protein (from UniProt Q8C2B3-1 1-938)

- binding [3]: binds
- binding [4]: binds
Molecule: Flag-tagged Stat3 (from UniProt P42227 1-770)

- binding [5]: binds
B1: HDAC7 (histone deacetylase 7), endogenous human protein (protein, UniProt Q8WUI4 1-952)
chain: MDLRVGQRPPVEPPPEPTLLALQRPQRLHHHLFLAGLQQQRSVEPMRLSMDTPMPELQVGPQEQELRQLLHKDKSKRSAVASSVVKQKLAEVILKKQQAALERTVHPNSPGIPYRTLEPLETEGATRSMLSSFLPPVPSLPSDPPEHFPLRKTVSEPNLKLRYKPKKSLERRKNPLLRKESAPPSLRRRPAETLGDSSPSSSSTPASGCSSPNDSEHGPNPILGSEALLGQRLRLQETSVAPFALPTVSLLPAITLGLPAPARADSDRRTHPTLGPRGPILGSPHTPLFLPHGLEPEAGGTLPSRLQPILLLDPSGSHAPLLTVPGLGPLPFHFAQSLMTTERLSGSGLHWPLSRTRSEPLPPSATAPPPPGPMQPRLEQLKTHVQVIKRSAKPSEKPRLRQIPSAEDLETDGGGPGQVVDDGLEHRELGHGQPEARGPAPLQQHPQVLLWEQQRLAGRLPRGSTGDTVLLPLAQGGHRPLSRAQSSPAAPASLSAPEPASQARVLSSSETPARTLPFTTGLIYDSVMLKHQCSCGDNSRHPEHAGRIQSIWSRLQERGLRSQCECLRGRKASLEELQSVHSERHVLLYGTNPLSRLKLDNGKLAGLLAQRMFVMLPCGGVGVDTDTIWNELHSSNAARWAAGSVTDLAFKVASRELKNGFAVVRPPGHHADHSTAMGFCFFNSVAIACRQLQQQSKASKILIVDWDVHHGNGTQQTFYQDPSVLYISLHRHDDGNFFPGSGAVDEVGAGSGEGFNVNVAWAGGLDPPMGDPEYLAAFRIVVMPIAREFSPDLVLVSAGFDAAEGHPAPLGGYHVSAKCFGYMTQQLMNLAGGAVVLALEGGHDLTAICDASEACVAALLGNRVDPLSEEGWKQKPNLNAIRSLEAVIRVHSKYWGCMQRLASCPDSWVPRVPGADKEEVEAVTALASLSVGILAEDRPSEQLVEEEEPMNL
